# Measurements published in article PMC7819943, “Rice protein-binding microarrays: a tool to detect cis-acting elements near promoter regions in rice”.
# Some of the results follow.
# Target: T1, OsSMF1 (Oryza sativa, UniProt Q6ZLB0 1-436)
# T1 sequence: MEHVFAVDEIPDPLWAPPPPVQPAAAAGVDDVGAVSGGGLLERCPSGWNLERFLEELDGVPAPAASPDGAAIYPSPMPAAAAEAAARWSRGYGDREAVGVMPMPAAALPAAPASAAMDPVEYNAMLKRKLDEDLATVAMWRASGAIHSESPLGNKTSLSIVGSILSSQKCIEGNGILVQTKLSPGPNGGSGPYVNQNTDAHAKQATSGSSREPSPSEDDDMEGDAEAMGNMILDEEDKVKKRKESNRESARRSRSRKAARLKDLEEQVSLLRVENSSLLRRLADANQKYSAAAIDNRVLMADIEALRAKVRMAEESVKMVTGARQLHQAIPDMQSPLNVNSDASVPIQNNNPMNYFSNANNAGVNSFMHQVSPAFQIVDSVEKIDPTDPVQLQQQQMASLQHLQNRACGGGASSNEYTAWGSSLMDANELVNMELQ
# Experiment: protein-binding microarray (RPBM); PBS, 2% BSA, 51.3 ng/ul salmon testes DNA, 50 uM zinc acetate, 200 nM TF, 25 C, 1 h; high values mean tight binding
# Conditions: protein: recombinant; tags: N-terminal polyhistidine and DsRed monomer fusion (pET32a); chain copies: 2; label: CyDye5-dUTP incorporated in the synthesized complementary strand; 3' TTTTT single-stranded linker to array surface; dsDNA, one strand shown
# In short: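 Polyhistidine-tagged DsRed fusions of transcription factors, joined at the N-terminus, were expressed in E. coli BL21-CodonPlus and isolated on Ni–NTA. They were incubated at 200 nM for 1 h at 25 °C on a custom Agilent array, double-stranded and BSA-blocked, in PBS with 2% BSA, salmon testes DNA and 50 µM zinc acetate. The binding signal is per-feature fluorescence intensity (arbitrary units) read on an Axon 4000B scanner after washing.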
row,Sequence,binding signal
1,TTAGATGAAACCACGATTTGTCAAAATGCATCCAAAACTTCGGAGTCACCTAGTGCAG,43100 fluorescence intensity (a.u.)
2,TTAAACGGGCTTTAAGGTAGAAAGTACACGTGGACTGCAACGGAGTCACCTAGTGCAG,10100 fluorescence intensity (a.u.)
3,TCCACTGCGCACTGTCACCTTCCTATATAAACGGCCACCCCGGAGTCACCTAGTGCAG,3170 fluorescence intensity (a.u.)
4,CCCTCCTTGTCCCGCCTGGTGACGATTTCCATGGGCATTGCGGAGTCACCTAGTGCAG,3760 fluorescence intensity (a.u.)
5,CGCGCGCGCGTGGCAGCTGACGTGGCGAGTACTGGTGGGGCGGAGTCACCTAGTGCAG,30400 fluorescence intensity (a.u.)
6,AATTTACAAGATCACACCAGCATCGTCAGAGGTTAACCTACGGAGTCACCTAGTGCAG,3680 fluorescence intensity (a.u.)
7,AAGCTCTCATGTCAGACAGTCAGCGGCTGAAGCTTTGTGACGGAGTCACCTAGTGCAG,5500 fluorescence intensity (a.u.)
8,CATTTAGGATCTTATGTGAGTCAGATGGCATATTTCTTCCCGGAGTCACCTAGTGCAG,3770 fluorescence intensity (a.u.)
9,CCTCTAGAACTCCATGCACGTTCGGTTCTGTCCCTAGCACCGGAGTCACCTAGTGCAG,29300 fluorescence intensity (a.u.)
10,CAAACTTTGAGAGGAAACATAATTTAATTAGTTGATTAAGCGGAGTCACCTAGTGCAG,3570 fluorescence intensity (a.u.)
11,ACAAGCTCGGTGTCTTCTTGAACGGTCCGCGTCACCGGCGCGGAGTCACCTAGTGCAG,8870 fluorescence intensity (a.u.)
12,AGAGCCAACTGGTCGATCTCCAGTGAGTCAGTGACCTAATCGGAGTCACCTAGTGCAG,4470 fluorescence intensity (a.u.)
13,ACTTGACGAGTCCGACCACTGGCGTCAGTTGCGCCGCCTGCGGAGTCACCTAGTGCAG,3490 fluorescence intensity (a.u.)
14,AGCAGTCAAAGGAGTGGCCGAAGTGGGGACCATCTTCCTCCGGAGTCACCTAGTGCAG,3210 fluorescence intensity (a.u.)
15,AAGTTGTGCAAGTACATTGACGTGGGCACAGTGGCGTCCACGGAGTCACCTAGTGCAG,6800 fluorescence intensity (a.u.)
16,GAGACGACGAGTCGGACATGACACGTTCAGGCTCATTTCCCGGAGTCACCTAGTGCAG,3200 fluorescence intensity (a.u.)
17,TTCCGACCGAAACCGTACGTGGCGTTCACTTCACCGTGGGCGGAGTCACCTAGTGCAG,6200 fluorescence intensity (a.u.)
18,ATCCTGTCACGGTCAGCCACGTCGCGGAGGGCAGTGCGACCGGAGTCACCTAGTGCAG,4580 fluorescence intensity (a.u.)
19,CCCTCTCCTCACGTGTTGCTAGCGCCGATGTCACCTCTCGCGGAGTCACCTAGTGCAG,4640 fluorescence intensity (a.u.)
20,GTTGCCAAAAGTACACATGTCACGCAAGCACGCGACTCACCGGAGTCACCTAGTGCAG,4670 fluorescence intensity (a.u.)
21,CCGAGACCAAGCTATCTTCAACTTGACTCATTAATAGCAACGGAGTCACCTAGTGCAG,4360 fluorescence intensity (a.u.)

# Random excerpt: two records from the list, in no set order.
row,Sequence,binding signal
21,CCGAGACCAAGCTATCTTCAACTTGACTCATTAATAGCAACGGAGTCACCTAGTGCAG,4360 fluorescence intensity (a.u.)
8,CATTTAGGATCTTATGTGAGTCAGATGGCATATTTCTTCCCGGAGTCACCTAGTGCAG,3770 fluorescence intensity (a.u.)

# The results go on:

row,Sequence,binding signal
1,AACTCCTCCTTGAAGGGCCTGGGCTTCATCTCTATCTCTACGGAGTCACCTAGTGCAG,4180 fluorescence intensity (a.u.)
2,ACATGCCCATGCGCGACACGTGCACCTCCTCATCCAAACTCGGAGTCACCTAGTGCAG,5600 fluorescence intensity (a.u.)
3,TATTGATCGCGTCAGCTTCCACTTGCGTTGTTCTTTGCGGCGGAGTCACCTAGTGCAG,7120 fluorescence intensity (a.u.)
4,ACAGAAGTCCAAGATACACAGTGCTACTAGAAAGCCGTATCGGAGTCACCTAGTGCAG,3260 fluorescence intensity (a.u.)
5,ATTGCCAGGTGCCCGGTACTCCGGTAGGGTCAGGGCGGATCGGAGTCACCTAGTGCAG,3430 fluorescence intensity (a.u.)
6,TCTTAGTATGAGCTTGGTTCGTGGCTTTAGGCTGCCTACCCGGAGTCACCTAGTGCAG,6700 fluorescence intensity (a.u.)
7,TTCCCTCCCTACTGTCTCTGGTTCTCTGCTCCTCCACTTCCGGAGTCACCTAGTGCAG,25000 fluorescence intensity (a.u.)
8,GGTCCCCTCCACTCTCCATGTCATCGGCTGACACATAGGGCGGAGTCACCTAGTGCAG,5100 fluorescence intensity (a.u.)
9,CCTGGCCGGCTGCTGACCAGGCAATCCGTGTCGTAGTGGTCGGAGTCACCTAGTGCAG,7050 fluorescence intensity (a.u.)
10,GACTAGTCATAATATCTTATGACTCATTCTTATGGTATATCGGAGTCACCTAGTGCAG,8510 fluorescence intensity (a.u.)
11,CCTGTTGAGGTTGTCAGCAAGGCAGGGACTATTGTCGCCGCGGAGTCACCTAGTGCAG,4090 fluorescence intensity (a.u.)
12,TACTAAGCACAATATACAAGTGTGTCACATCATCACCCACCGGAGTCACCTAGTGCAG,3620 fluorescence intensity (a.u.)
13,GTAGGCGCCACGTGGCGCCACGTCAGCAAAACCGCCTCCTCGGAGTCACCTAGTGCAG,24000 fluorescence intensity (a.u.)
14,CGTCTCCTGCTCGAGTCATCGTCCCCACTGCGTGCACAAGCGGAGTCACCTAGTGCAG,4000 fluorescence intensity (a.u.)
15,AATTTTGACATGCCTAAGAAAATAGGCCATTTCAACCGTTCGGAGTCACCTAGTGCAG,18600 fluorescence intensity (a.u.)
16,TAAATATGCAGTGTCCCTCTGATGACTAATGCAAATCAGTCGGAGTCACCTAGTGCAG,3940 fluorescence intensity (a.u.)
17,TTCGTTTCTTATGTAACACGTGGATGAAAATTTAGATTTTCGGAGTCACCTAGTGCAG,8280 fluorescence intensity (a.u.)
18,GCAACGGAAGAGATGAGGAGATGACTCGGATGAGCGGAAGCGGAGTCACCTAGTGCAG,3180 fluorescence intensity (a.u.)
19,ATTAAGCATGCTCATGTTATACACATCTAGCGCTGTTACTCGGAGTCACCTAGTGCAG,3170 fluorescence intensity (a.u.)
20,AGAAGCGAACGTGGCAACCTTCCCTGGGCCCCACCCCTCCCGGAGTCACCTAGTGCAG,9260 fluorescence intensity (a.u.)
21,GGAGTATGACAGGTGGGGCCGCGTCAGGGGTATTTTGGTCCGGAGTCACCTAGTGCAG,4750 fluorescence intensity (a.u.)
